Source: US20150005347A1, “NITROGEN-CONTAINING HETEROCYCLIC DERIVATIVE HAVING 2-IMINO GROUP AND PEST CONTROL AGENT INCLUDING THE SAME” (MEIJI SEIKA PHARMA CO., LTD., priority 2012, published 2015)
Some entries share one result that the patent states for a list of compounds. For some of these results: The name of at least one read-out is uncertain.

Key:
Format in all cases: in vivo
Aphis gossypii = assay: Pest control test of Aphis gossypii, cucumber leaf disk foliar spray; details: first instar larvae, three days after release
Description: Test Example 3 Pest Control Test of Aphis gossypii
(§1) A leaf disk having a diameter of 2.0 cm was cut out from a cucumber in pot culture, and a drug solution of the compound of the present invention at a predetermined concentration, which had been prepared so as to be a 50% acetone water (0.05% Tween20 available), was sprayed to the leaf disk. After an air drying process, first instar larvae were released thereto. Thereafter, the larvae were left to stand in a thermostatic chamber (16 hours of light period-8 hours of dark period) at 25° C. […] Test in duplicate.
(§2) Mortality of larvae(%)={number of dead larvae/(number of survived larvae+number of dead larvae)}×100

[1] = test system: Haemaphysalis longicornis; assay: Pest control test of Haemaphysalis longicornis on the body surface of a mouse; details: 9.5 μg on the body surface of the mouse; five days after release
Plutella xylostella = Plutella xylostella control test, cabbage leaf disk foliar spray; details: second instar larvae, three days after release
Description: Test Example 1 Plutella xylostella Control Test
as §1, with “5.0” for “2.0”, “cabbage” for “cucumber”, “second” for “first”
mortality larvae(%)={number of dead larvae/(number of survived larvae+number of dead larvae)}×100

Laodelphax striatella = assay: Pest control test of Laodelphax striatella, wheat seedling root treatment; details: seven days after release
[2] = test system: Frankliniella occidentalis; assay: Pest control test of Frankliniella occidentalis, kidney bean leaf disk foliar spray; details: first instar larvae, three days after release
Source text: Test Example 7 Pest Control Test of Frankliniella occidentalis
as §1, with “2.8” for “2.0”, “kidney bean” for “cucumber”
as §2

[3] = test system: Haemaphysalis longicornis; assay: Pest control test of Haemaphysalis longicornis, dry film in glass vial; details: dry film from 200 ppm acetone solution; young mites; one day after release

FC(F)(F)C(=NCc1cccnc1)N=c1ccccn1Cc1ccc(Cl)nc1 [Compound 1-119]
≥ 80%: mortality of larvae (Aphis gossypii; foliar treatment at 20 ppm) | mortality of larvae (Aphis gossypii; foliar treatment at 100 ppm) | rate of insects agonized in death [1] | mortality of larvae (Plutella xylostella; foliar treatment at 100 ppm) | mortality of larvae (Laodelphax striatella; 2 μg/seedling) | mortality of larvae ([2]; foliar treatment at 500 ppm)

FC(F)(F)C(=NCCOc1ccccc1)N=c1ccccn1Cc1ccc(Cl)nc1 [Compound 1-114]
≥ 80%: mortality of larvae (Aphis gossypii; foliar treatment at 20 ppm) | mortality of larvae (Aphis gossypii; foliar treatment at 100 ppm) | rate of insects agonized in death [1] | mortality of larvae (Plutella xylostella; foliar treatment at 100 ppm) | mortality of larvae (Laodelphax striatella; 2 μg/seedling) | mortality of larvae ([2]; foliar treatment at 500 ppm)

CCC(CC)N=C(N=c1ccccn1Cc1ccc(Cl)nc1)C(F)(F)F [Compound 1-681]
≥ 80%: mortality of larvae (Aphis gossypii; foliar treatment at 100 ppm) | rate of insects agonized in death [1] | mortality of larvae (Plutella xylostella; foliar treatment at 500 ppm) | mortality of larvae ([2]; foliar treatment at 500 ppm)

FC(F)(F)C(=NC1CC1)N=c1ccccn1Cc1ccc(Cl)nc1 [Compound 1-50]
≥ 80%: mortality of larvae (Aphis gossypii; foliar treatment at 20 ppm) | mortality of larvae (Aphis gossypii; foliar treatment at 100 ppm) | rate of insects agonized in death [1] | mortality of larvae (Plutella xylostella; foliar treatment at 100 ppm) | mortality of larvae (Laodelphax striatella; 2 μg/seedling) | mortality of larvae ([2]; foliar treatment at 500 ppm)

O=C(N=c1scnn1Cc1ccc(Cl)nc1)C(F)(F)F [Compound 266-2]
≥ 80%: mortality of larvae (Aphis gossypii; foliar treatment at 20 ppm) | mortality of larvae (Aphis gossypii; foliar treatment at 100 ppm) | mortality of larvae (Aphis gossypii; foliar treatment at 500 ppm) | mortality of insects [3] | mortality of larvae (Plutella xylostella; foliar treatment at 500 ppm) | mortality of larvae ([2]; foliar treatment at 500 ppm)

FC(F)(F)C(=NC1CCCCC1)N=c1ccccn1Cc1ccc(Cl)nc1 [Compound 1-53]
≥ 80%: mortality of larvae (Aphis gossypii; foliar treatment at 20 ppm) | mortality of larvae (Aphis gossypii; foliar treatment at 100 ppm) | rate of insects agonized in death [1] | mortality of larvae (Plutella xylostella; foliar treatment at 500 ppm) | mortality of larvae (Laodelphax striatella; 2 μg/seedling) | mortality of larvae (Laodelphax striatella; 20 μg/seedling) | mortality of larvae ([2]; foliar treatment at 500 ppm)

O=C(N=c1scnn1Cc1cnc(Cl)s1)C(F)(F)F [Compound 444-2]
≥ 80%: mortality of larvae (Aphis gossypii; foliar treatment at 100 ppm) | mortality of larvae (Aphis gossypii; foliar treatment at 500 ppm) | mortality of insects [3]

CCCCCCCCCCCCCCCCN=C(N=c1ccccn1Cc1ccc(Cl)nc1)C(F)(F)F [Compound 1-658]
≥ 80%: mortality of larvae (Aphis gossypii; foliar treatment at 20 ppm) | mortality of larvae (Aphis gossypii; foliar treatment at 100 ppm) | rate of insects agonized in death [1] | mortality of larvae (Plutella xylostella; foliar treatment at 100 ppm) | mortality of larvae (Plutella xylostella; foliar treatment at 500 ppm)

O=C(N=c1ccccn1Cc1ccc(Cl)nc1)OC(C(F)(F)F)C(F)(F)F [Compound 1-19]
≥ 80%: mortality of larvae (Aphis gossypii; foliar treatment at 500 ppm) | mortality of insects [3]

CC(=O)ON=C(N=c1ccccn1Cc1ccc(Cl)nc1)C(F)(F)F [Compound 1-511]
≥ 80%: mortality of larvae (Aphis gossypii; foliar treatment at 20 ppm) | mortality of larvae (Aphis gossypii; foliar treatment at 100 ppm) | mortality of larvae (Aphis gossypii; foliar treatment at 500 ppm) | mortality of larvae (Plutella xylostella; foliar treatment at 100 ppm) | mortality of larvae (Plutella xylostella; foliar treatment at 500 ppm) | mortality of larvae (Laodelphax striatella; 2 μg/seedling) | mortality of larvae (Laodelphax striatella; 20 μg/seedling) | mortality of larvae ([2]; foliar treatment at 500 ppm)

CCON=C(N=c1ccccn1Cc1ccc(Cl)nc1)C(F)(F)F [Compound 1-501]
≥ 80%: mortality of larvae (Aphis gossypii; foliar treatment at 20 ppm) | mortality of larvae (Aphis gossypii; foliar treatment at 100 ppm) | mortality of larvae (Aphis gossypii; foliar treatment at 500 ppm) | rate of insects agonized in death [1] | mortality of larvae (Plutella xylostella; foliar treatment at 100 ppm) | mortality of larvae (Plutella xylostella; foliar treatment at 500 ppm) | mortality of larvae (Laodelphax striatella; 2 μg/seedling) | mortality of larvae (Laodelphax striatella; 20 μg/seedling) | mortality of larvae ([2]; foliar treatment at 500 ppm)

CCCCCCCCCCCCN=C(N=c1ccccn1Cc1ccc(Cl)nc1)C(F)(F)F [Compound 1-659]
≥ 80%: mortality of larvae (Aphis gossypii; foliar treatment at 20 ppm) | mortality of larvae (Aphis gossypii; foliar treatment at 100 ppm) | rate of insects agonized in death [1] | mortality of larvae (Plutella xylostella; foliar treatment at 100 ppm) | mortality of larvae (Plutella xylostella; foliar treatment at 500 ppm)

CON=C(N=c1ccccn1Cc1ccc(Cl)nc1)C(F)(F)F [Compound 1-500]
≥ 80%: mortality of larvae (Aphis gossypii; foliar treatment at 100 ppm) | mortality of larvae (Aphis gossypii; foliar treatment at 500 ppm) | rate of insects agonized in death [1] | mortality of larvae (Plutella xylostella; foliar treatment at 100 ppm) | mortality of larvae (Plutella xylostella; foliar treatment at 500 ppm) | mortality of larvae (Laodelphax striatella; 20 μg/seedling)

O=C(N=c1ccccn1Cc1cnc(Cl)cn1)C(F)(F)F [Compound 7-2]
≥ 80%: mortality of larvae (Aphis gossypii; foliar treatment at 20 ppm) | mortality of larvae (Aphis gossypii; foliar treatment at 100 ppm) | mortality of larvae (Aphis gossypii; foliar treatment at 500 ppm) | mortality of insects [3] | mortality of larvae (Plutella xylostella; foliar treatment at 500 ppm) | mortality of larvae (Laodelphax striatella; 2 μg/seedling) | mortality of larvae (Laodelphax striatella; 20 μg/seedling)

CC(OC(=O)N=c1ccccn1Cc1ccc(Cl)nc1)C(F)(F)F (stereo not shown) [Compound 1-18]
≥ 80%: mortality of larvae (Aphis gossypii; foliar treatment at 100 ppm) | mortality of larvae (Aphis gossypii; foliar treatment at 500 ppm) | mortality of insects [3]

ON=C(/N=c1\ccccn1Cc1ccc(Cl)nc1)C(F)(F)F [Compound 1-499, N-[1-((6-chloropyridin-3-yl)methyl)pyridin-2(1H)-ylidene]-2,2,2-trifluoro-N′-hydroxyacetimidamide]
≥ 80%: rate of insects agonized in death [1] | mortality of larvae (Laodelphax striatella; 2 μg/seedling) | mortality of larvae (Laodelphax striatella; 20 μg/seedling)

CC(N=C(N=c1ccccn1Cc1ccc(Cl)nc1)C(F)(F)F)c1cccc2ccccc12 (stereo not shown) [Compound 1-665]
≥ 80%: mortality of larvae (Aphis gossypii; foliar treatment at 20 ppm) | mortality of insects [3] | mortality of larvae (Plutella xylostella; foliar treatment at 100 ppm)

FC(F)(F)C(=S)N=c1ccccn1Cc1cnc(Cl)s1 [Compound 2-20]
≥ 80%: mortality of larvae (Aphis gossypii; foliar treatment at 20 ppm) | mortality of larvae (Aphis gossypii; foliar treatment at 100 ppm) | mortality of insects [3] | mortality of larvae (Plutella xylostella; foliar treatment at 100 ppm) | mortality of larvae (Laodelphax striatella; 20 μg/seedling)

C=CC(=O)ON=C(N=c1ccccn1Cc1ccc(Cl)nc1)C(F)(F)F [Compound 1-516]
≥ 80%: mortality of larvae (Aphis gossypii; foliar treatment at 20 ppm) | mortality of larvae (Aphis gossypii; foliar treatment at 100 ppm) | rate of insects agonized in death [1] | mortality of larvae (Plutella xylostella; foliar treatment at 100 ppm) | mortality of larvae (Laodelphax striatella; 2 μg/seedling)

CC(N=C(N=c1ccccn1Cc1ccc(Cl)nc1)C(F)(F)F)c1ccccc1 (stereo not shown) [Compound 1-663]
≥ 80%: mortality of larvae (Aphis gossypii; foliar treatment at 20 ppm) | rate of insects agonized in death [1] | mortality of larvae (Plutella xylostella; foliar treatment at 100 ppm)

O=C(/N=c1\ccccn1Cc1ccc(Cl)nc1)OCC(F)(F)F [Compound 1-17, 2,2,2-trifluoroethyl-[1-((6-chloropyridin-3-yl)methyl)pyridin-(2H)-ylidene]carbamate]
≥ 80%: mortality of insects [3]

O=C(ON=C(N=c1ccccn1Cc1ccc(Cl)nc1)C(F)(F)F)C1CC1 [Compound 1-515]
≥ 80%: mortality of larvae (Aphis gossypii; foliar treatment at 20 ppm) | mortality of larvae (Aphis gossypii; foliar treatment at 100 ppm) | rate of insects agonized in death [1] | mortality of larvae (Plutella xylostella; foliar treatment at 100 ppm) | mortality of larvae (Laodelphax striatella; 20 μg/seedling)

C#CCN=C(N=c1ccccn1Cc1ccc(Cl)nc1)C(F)(F)F [Compound 1-56]
≥ 80%: mortality of larvae (Aphis gossypii; foliar treatment at 20 ppm) | mortality of larvae (Aphis gossypii; foliar treatment at 100 ppm) | rate of insects agonized in death [1] | mortality of larvae (Plutella xylostella; foliar treatment at 100 ppm) | mortality of larvae (Laodelphax striatella; 20 μg/seedling) | mortality of larvae ([2]; foliar treatment at 100 ppm) | mortality of larvae ([2]; foliar treatment at 500 ppm)

CN=C(/N=c1\ccccn1Cc1ccc(Cl)nc1)C(F)(F)F [Compound 1-42, N-[1-((6-chloropyridin-3-yl)methyl)pyridin-2(1H)-ylidene]-2,2,2-trifluoro-N′-methylacetimidamide]
≥ 80%: rate of insects agonized in death [1] | mortality of larvae (Laodelphax striatella; 2 μg/seedling) | mortality of larvae (Laodelphax striatella; 20 μg/seedling)

FC(F)(F)C(=NC(c1ccccc1)c1ccccc1)N=c1ccccn1Cc1ccc(Cl)nc1 [Compound 1-676]
≥ 80%: mortality of insects [3]

FC(F)(F)C(=NCc1ccccc1)N=c1ccccn1Cc1ccc(Cl)nc1 [Compound 1-72]
≥ 80%: mortality of larvae (Aphis gossypii; foliar treatment at 20 ppm) | mortality of larvae (Aphis gossypii; foliar treatment at 100 ppm) | mortality of larvae (Aphis gossypii; foliar treatment at 500 ppm) | rate of insects agonized in death [1] | mortality of larvae (Plutella xylostella; foliar treatment at 100 ppm) | mortality of larvae (Plutella xylostella; foliar treatment at 500 ppm) | mortality of larvae (Laodelphax striatella; 20 μg/seedling) | mortality of larvae ([2]; foliar treatment at 500 ppm)
